In all, about 33,000 sequences were measured (“E-score (-0.5 to 0.5)”: median about -0.015, highest 2% from about 0.3 on). This is one part of the list.
Target: T1, Abf1 (UniProt P14164)
T1 sequence: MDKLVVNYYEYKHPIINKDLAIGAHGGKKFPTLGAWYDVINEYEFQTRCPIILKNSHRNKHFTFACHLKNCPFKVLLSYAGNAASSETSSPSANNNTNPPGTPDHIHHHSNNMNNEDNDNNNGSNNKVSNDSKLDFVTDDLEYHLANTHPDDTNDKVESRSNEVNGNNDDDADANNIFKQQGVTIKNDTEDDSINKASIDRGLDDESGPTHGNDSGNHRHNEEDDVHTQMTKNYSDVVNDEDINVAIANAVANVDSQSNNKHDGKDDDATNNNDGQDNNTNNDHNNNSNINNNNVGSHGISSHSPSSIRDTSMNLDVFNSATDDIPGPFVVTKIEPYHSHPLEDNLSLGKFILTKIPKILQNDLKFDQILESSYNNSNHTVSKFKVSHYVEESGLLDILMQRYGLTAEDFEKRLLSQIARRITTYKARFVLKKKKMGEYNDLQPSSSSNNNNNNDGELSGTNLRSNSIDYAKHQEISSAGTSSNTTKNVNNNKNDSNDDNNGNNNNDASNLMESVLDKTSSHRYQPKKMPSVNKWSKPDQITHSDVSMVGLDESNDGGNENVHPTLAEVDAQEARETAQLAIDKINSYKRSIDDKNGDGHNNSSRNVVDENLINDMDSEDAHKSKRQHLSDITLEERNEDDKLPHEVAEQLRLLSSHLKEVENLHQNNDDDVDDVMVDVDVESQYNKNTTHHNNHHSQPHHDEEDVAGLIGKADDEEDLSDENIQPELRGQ
Assay: PBM E-score (8-mer binding enrichment) (E-score (-0.5 to 0.5)); higher = stronger / more preferred TF binding
Settings: protein concentration: 200 nM; construct: GST-full length
Protocol: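 Universal 'all 10-mer' protein binding microarrays (Agilent AMADID 015681) probed with GST-tagged S. cerevisiae TFs (full-length or DBD) made by in vitro transcription/translation (PURExpress), about 100-200 nM. Bound TF was detected with fluorescent anti-GST. Each ungapped 8-mer (which stands for itself and its reverse complement) is scored by the PBM enrichment score (E-score), a modified Wilcoxon-Mann-Whitney statistic from -0.5 to +0.5, computed with the Universal PBM Analysis Suite. Scale: above 0.35 generally sequence-specific binding.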

| Sequence | PBM E-score |
| --- | --- |
| CATGATCA | 0.33 |
| CTGCATTA | -0.102 |
| CCAGAGGC | -0.27 |
| TAAGAGTA | 0.0399 |
| GGACTGGA | -0.137 |
| AGGCTATA | -0.218 |
| AGATATTA | 0.116 |
| CCAGCCAG | -0.249 |
| AGACGCCA | 0.0124 |
| GCGATCCA | 0.152 |
| TACCTTCA | 0.101 |
| GCACCGCA | -0.0957 |
| ACAGATTC | -0.00274 |
| AAGTGTCT | -0.00257 |
| ATTTACAG | 0.0512 |
| AAAGAGTC | -0.13 |
| ACCGCCAC | -0.267 |
| ATCGGCAA | -0.217 |
| ACTGCAGC | -0.232 |
| AAGGAATT | -0.124 |
| GCCGCCCC | -0.303 |
| TGTCGACA | 0.0272 |

| Sequence | PBM E-score |
| --- | --- |
| AGGTGAAG | -0.017 |
| GTACATAA | 0.324 |
| GGTAGACA | -0.118 |
| ATCTCTTA | 0.152 |
| CTGCTGCC | -0.105 |
| AAGCAGCT | -0.143 |
| ATGTGCAC | -0.078 |
| AGAGTCCC | -0.214 |
| CATTAATA | 0.243 |
| GTGGAGTA | 0.151 |
| ACGTCTCG | 0.165 |
| ACGAACGG | 0.312 |
| AATAGAGA | -0.131 |
| GCATAGAA | -0.0315 |
| CATCCCCA | 0.0716 |
| CAAGCGAG | 0.0713 |
| CCGCGCGC | -0.0562 |
| AACCGTGG | -5e-05 |
| ACCCAGTA | -0.0733 |
| GACACACC | 0.0357 |
| TGAGCCAA | -0.101 |
| CTATGCAC | 0.178 |

Exported as comma-separated lines: entries from further up.
Sequence,PBM E-score
ACGTCTCG,0.165
ACGAACGG,0.312
AATAGAGA,-0.131
GCATAGAA,-0.0315
CATCCCCA,0.0716

(further entries)

| Sequence | PBM E-score |
| --- | --- |
| CAACTGGA | -0.182 |
| GATGCGCC | -0.0192 |
| AAGAATTG | -0.00067 |
| ACGCTAGC | -0.103 |
| TAGCCATA | 0.0203 |
| ATGGGAGC | -0.227 |
| GAATGTCA | 0.278 |
| CTCACACA | -0.0398 |
| CCAGACCA | -0.0967 |
| GCTAGAAA | 0.16 |
| AGAATTAC | 0.0728 |
| CCCTTAGA | -0.174 |
| CGTTCTCA | 0.059 |
| TGACACAA | 0.156 |
| AATGTGTC | 0.0279 |
| CCATCCCA | -0.234 |
| ACTACGCA | -0.0933 |
| CAGAGAGC | -0.237 |
| AACGGGCC | -0.116 |
| GGTTCGAC | 0.0366 |
| CAACCATC | -0.167 |
| ATCTCCCC | -0.196 |

| Sequence | PBM E-score |
| --- | --- |
| AGTGCATA | 0.131 |
| ATGGGTCA | -0.00788 |
| ACAAATTA | 0.158 |
| TCGCCGAA | 0.0248 |
| CGTGTTTC | -0.155 |
| TCCTCCGA | -0.203 |
| ATATCAGA | 0.191 |
| GTAGATAA | 0.18 |
| GACGCCCC | -0.193 |
| ATTCTCTA | 0.133 |
| CCAGATGC | -0.0341 |
| ACACAAGT | 0.0793 |
| TAAGTCCA | 0.0117 |
| CCAAAGAC | 0.0455 |
| AATGAGAT | 0.148 |
| AAGCGTAG | -0.0275 |
| ATCGCCAG | 0.0334 |
| ATAACCAG | 0.142 |
| ATGCAGGA | -0.155 |
| CATAGAAA | 0.105 |
